From patent US20140364391A1, “Immobilization Of An Active Agent On A Substrate Using Compounds Including Trihydroxyphenyl Groups” (BAXTER INTERNATIONAL INC., priority 2013, published 2014) come the findings set out here.

This data set is described as follows: Silver nitrate test for immobilization of trihydroxyphenyl compound on oxidized polymeric substrates (Examples 16-20). Particulars: H2O2/HCl-oxidized PI, PC and PS substrates; 50 mM silver nitrate, about 60 hours.
For `Oc1ccc(O)c(O)c1` [1,2,4-benzenetriol], the “colour change of treated substrates in silver nitrate (deposition of silver metal)” value (“colour change of treated substrates” for short) is on record as “darkened in color”.
With `O=C(O)c1cc(O)c(O)c(O)c1` [gallic acid], the “colour change of treated substrates” value was “darkened in color”.
With `Oc1cc(O)cc(O)c1` [phloroglucinol] the entry was “darkened in color”.
Consider `Oc1cccc(O)c1O` [pyrogallol], for which the “colour change of treated substrates” value was “darkened in color”.
Then trihydroxybenzaldehyde, with “darkened in color”.
